Screen size: about 52,000 sequences; about 210 (0.4%) were called active.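 How the source made its calls: active means gene whose silencing raises cell survival under the drug, median off-target-corrected z-score across its silencing RNAs 2 or more; inactive means the rest.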 The list shows a part of the results.

The assay in a line: Resistance to Poly (ADP-Ribose) Polymerase inhibitor: Gene Identification via Genome-wide siRNA Screen. The settings on record: mouse BRCA2 R2336H ES cells, olaparib, CellTiter-Glo viability; active compounds read high. A digest of the protocol: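 Genome-wide siRNA screen (3 siRNAs/gene, 20 nM) in mouse ES cells carrying hypomorphic BRCA2 R2336H; olaparib 500 nM added 48 h post-transfection, CellTiter-Glo viability 72 h later. Normalized to plate-median negative control; MAD z-scores, gene median, seed-adjusted.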
GGAACUCAAACAUGAGCGGTT against Atp5j2: the z-score is inactive: -0.538.

For the sequence GGGUCAGACAUUAAUGUGATT against Traf1, the z-score was inactive: 0.0675.

Consider GGAAAUCCUUAAAUCUGUCTT against Gk2, for which the z-score is inactive: 1.14.

Take GGCUUCCUGGCUCAUCCAATT against Etv1: the z-score is inactive: -2.16.

On to GCCCUGAAUGUGAAUUUGUTT against Ass, for which the z-score was inactive: -1.16.

On to CCUCAUGCCUCAUUUCAAATT against Arhgef6, for which the z-score was inactive: -0.467.

In the case of GGACACCCUUAUAUUUGUCTT against Olfr1216, the z-score was inactive: 0.393.

Turning to UGCGAGCUCACUGAUGUACTT against LOC384813, the z-score is inactive: 3.47.

CCGAGGACUAUUUGAAACGTT against Mkl1: the z-score is inactive: 2.67.

GCCAAUACCUAAGUUCUAUTT against F8a: the z-score is inactive: -0.219.

GUCCUUGGGACAUUCUCUUTT against Olfr168: the z-score was inactive: -0.671.

Turning to GGAACAAAAAGAUCUUUGATT against Pdzrn3, the z-score is inactive: -0.323.

With GGACUAUUUGCUGAUGGACTT against Trpc6, the z-score was inactive: -0.176.

As to “GGAUUCAAACUGGUUUUCATT against 2810422B04Rik”, the z-score is inactive: 1.19.

On to GGUACAAGAUCAAGUCUCCTT against Scml4, for which the z-score is inactive: -0.136.

For “GGGAAGAAUUCAGAAAAACTT against 2010110K16Rik”, the z-score was inactive: 0.543.

Regarding GGGCAGGUCUUCUUCCUCATT against Hoxd4, the z-score was inactive: -0.0735.

On to GGAGACAUCCAUUGAGCUUTT against Kirrel1, for which the z-score is inactive: -0.209.

For GGAACACUGUAUCUUACGGTT against Mtmr6, the z-score was inactive: 1.42.

As to CCUGGCUGUAAUCACCAUCTT against Olfr1160, the z-score was inactive: -1.23.

“GCUAUGUAAGACAUUUAACTT against 5033413D22Rik”: the z-score is inactive: -0.0191.

For GGCUGUGUUGAAAGUUUUCTT against Olfr564, the z-score was inactive: -0.117.

Consider GGUCCUAGCUUCCUUUUACTT against R75581, for which the z-score was inactive: -0.51.

In the case of CGGGUAAUAAGGAUUUGGGTT against Igsf4c, the z-score is inactive: -0.0683.

In the case of CCUGGAUAAAGAUUUUAGATT against Olfr722, the z-score was inactive: 1.53.

As to GCCACUACUUGAUCUAUCATT against Cd34, the z-score was inactive: -0.383.

On to GCGGCCAGUUCGUUAUAUUTT against Abi2, for which the z-score was inactive: -0.595.

As to GGCAGAGAUGGUGUUGAUGTT against Col1a2, the z-score is inactive: 0.445.

As to GGCAGAAUUGUGGAGUUCGTT against Cblc, the z-score is inactive: 1.51.

As for GGAGAUGUCAAUCAAACCCTT against Tmem26, the z-score was inactive: 0.209.

Take “GGGCUCACUCCAAAUCUCUTT against D1Ertd622e”: the z-score is inactive: -0.565.

On to CCGUUGUAUUUAUGUUUGCTT against Mrgprb5, for which the z-score was inactive: 0.94.

As for GGUGACAGUCACCAAAGAATT against Clstn1, the z-score was inactive: -0.961.

Consider GGCAAAAGGAAGGUAGCCUTT against Cdyl, for which the z-score is inactive: 0.655.

Consider GGCCUUAUCUCCCACAUCATT against LOC240549, for which the z-score is inactive: -0.244.

For CCCAAUUGGAAACCUGAACTT against Actn3, the z-score was inactive: 0.252.

On to CCGGAAUAUCCACUAUAAUTT against DXImx46e, for which the z-score was inactive: -1.17.

On to “GGAAGAAGAAGAGAGAGAATT against 5830402J09”, for which the z-score is inactive: -2.53.

As for GGUUCCAAUGCUAUUGAAUTT against Mtac2d1, the z-score is inactive: -0.357.

For the sequence CAGAUCCAUCUCUUAAUGGTT against Olfr204, the z-score was inactive: -0.112.

Take “GGCUUUUCCAAGACCUUUCTT against 9430062J17Rik”: the z-score is inactive: -1.66.

For GGUUUCUGCGUCUUCACCCTT against Nr3c1, the z-score was inactive: -0.131.

For “CCGUGAAGGGUGAACUUAUTT against 4933402O15Rik”, the z-score is inactive: 1.87.

Consider GGCAGUUUUUGGACUGUCCTT against Olfr556, for which the z-score is inactive: -1.11.

With GGAUUGGUUUAGUCAAUAATT against Psmc4, the z-score was inactive: -3.42.

Take GGCCAUCAUUGUCACCGUGTT against Adra2a: the z-score is inactive: -1.31.

Consider GGAAGUCAAAAGUGAUUAGTT against Hkr3, for which the z-score was inactive: -1.46.

Take GGUUUUCACAAGACCUCUGTT against Ptgdr: the z-score is inactive: 0.327.

Turning to GGGAGCAAAUUAGAGAAAUTT against Gsk3b, the z-score is inactive: -0.761.

For the sequence GGCCAUACCUCCCUUUGAATT against Rpo1-2, the z-score was inactive: -3.18.

As to “GCACAAUGUACAUUAAAGUTT against 0610011L14Rik”, the z-score is inactive: 0.921.

Consider “CGAUCAGUGGUAUAAACUGTT against 4932425I24Rik”, for which the z-score was inactive: -0.357.

Consider CCAAGCUUACACUAGUGUUTT against Cdk6, for which the z-score was inactive: 0.346.

As to GGUGUGAGGAUCCUAGAGUTT against Rabl5, the z-score was inactive: 0.91.

Turning to GGUAGAGCUCACAAGAUCATT against Gmpr2, the z-score was inactive: 0.695.

For the sequence “GGAUUCAGCUCUCAUCAGATT against A930012O16Rik”, the z-score was inactive: -3.21.

GGUCCCUGGACCAAAGAAGTT against Myb: the z-score is inactive: -0.639.

For the sequence “GGUACGAUGAACUCACAGATT against 1110015K06Rik”, the z-score is inactive: -1.59.

On to “GCCUGAGUUAUGUUUAAAGTT against 2610528A17Rik”, for which the z-score is inactive: 1.64.

Regarding GGUCACUCCCACAUUUCACTT against Spred1, the z-score is inactive: 0.0502.

On to “GGUGAAUGUAGUGUUAAAATT against 0910001A06Rik”, for which the z-score was inactive: 0.762.

On to “GGCCUAGAAAGGAAUGAUATT against 1110001M19Rik”, for which the z-score is inactive: 1.42.

As for “GUGACAGUGGCAUCAGCAUTT against 1110003E01Rik”, the z-score was inactive: -0.351.

As for GGUAAAAGAGUCGUGUUUCTT against AI415330, the z-score was inactive: -0.388.

For GCUUAUGUUUCUGCCACUCTT against Olfr1136, the z-score is inactive: 0.723.

In the case of GGGAGGAAUAGCACAGUCATT against Olfr1440, the z-score is inactive: -0.547.
